# Assay results from article PMC7862700.
# Only a part is listed here, and it is no random draw. At the low end of the ranking the order means little.
# Tests used:
# Experiment in all cases: DAPPL (digital affinity profiling via proximity ligation, sequencing)
# Conditions in all cases: 10 mM Tris-HCl pH 7.5, 50 mM NaCl, 1 mM DTT, 4% glycerol, room temperature, 30 min; GST-TFs on glutathione beads, 16-mer random dsDNA library, 0.1% …; high values mean tight binding; double strand, one strand shown; scale: fold enrichment (6-mer frequency, TF over GST control)
# ELK1 = target: T1, ELK1 (UniProt P19419)
# T1 sequence: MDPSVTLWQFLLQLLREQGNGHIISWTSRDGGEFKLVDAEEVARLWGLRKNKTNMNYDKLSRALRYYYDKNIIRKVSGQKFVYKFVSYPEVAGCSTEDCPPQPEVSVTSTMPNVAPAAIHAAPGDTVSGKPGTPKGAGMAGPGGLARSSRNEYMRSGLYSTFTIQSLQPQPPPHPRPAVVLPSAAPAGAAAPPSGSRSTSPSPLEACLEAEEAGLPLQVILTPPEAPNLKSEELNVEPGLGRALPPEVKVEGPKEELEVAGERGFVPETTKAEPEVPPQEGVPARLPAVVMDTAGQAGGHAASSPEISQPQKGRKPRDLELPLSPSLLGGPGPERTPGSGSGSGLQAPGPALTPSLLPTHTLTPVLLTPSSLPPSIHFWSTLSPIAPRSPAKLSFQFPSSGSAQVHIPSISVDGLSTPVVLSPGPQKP
# ELK3 = target: T2, ELK3 (UniProt P41970)
# T2 sequence: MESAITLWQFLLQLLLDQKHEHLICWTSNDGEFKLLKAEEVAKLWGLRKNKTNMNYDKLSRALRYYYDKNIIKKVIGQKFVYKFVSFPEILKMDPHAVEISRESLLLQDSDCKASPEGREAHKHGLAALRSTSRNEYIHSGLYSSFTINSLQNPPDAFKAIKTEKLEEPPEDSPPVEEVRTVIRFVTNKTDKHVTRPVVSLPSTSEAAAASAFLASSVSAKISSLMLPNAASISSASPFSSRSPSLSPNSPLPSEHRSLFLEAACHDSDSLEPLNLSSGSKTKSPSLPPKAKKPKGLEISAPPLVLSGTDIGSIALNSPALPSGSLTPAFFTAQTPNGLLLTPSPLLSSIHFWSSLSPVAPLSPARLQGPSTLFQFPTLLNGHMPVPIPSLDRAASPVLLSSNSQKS
# SPIC = target: T3, SPIC (UniProt Q8N5J4)
# T3 sequence: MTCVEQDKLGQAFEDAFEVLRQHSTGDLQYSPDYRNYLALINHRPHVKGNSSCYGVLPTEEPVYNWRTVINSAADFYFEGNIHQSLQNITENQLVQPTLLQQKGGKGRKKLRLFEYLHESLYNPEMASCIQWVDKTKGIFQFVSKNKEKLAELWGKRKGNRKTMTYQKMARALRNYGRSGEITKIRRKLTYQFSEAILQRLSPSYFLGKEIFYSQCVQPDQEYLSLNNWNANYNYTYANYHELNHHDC
# ETS2 = target: T4, ETS2 (UniProt P15036)
# T4 sequence: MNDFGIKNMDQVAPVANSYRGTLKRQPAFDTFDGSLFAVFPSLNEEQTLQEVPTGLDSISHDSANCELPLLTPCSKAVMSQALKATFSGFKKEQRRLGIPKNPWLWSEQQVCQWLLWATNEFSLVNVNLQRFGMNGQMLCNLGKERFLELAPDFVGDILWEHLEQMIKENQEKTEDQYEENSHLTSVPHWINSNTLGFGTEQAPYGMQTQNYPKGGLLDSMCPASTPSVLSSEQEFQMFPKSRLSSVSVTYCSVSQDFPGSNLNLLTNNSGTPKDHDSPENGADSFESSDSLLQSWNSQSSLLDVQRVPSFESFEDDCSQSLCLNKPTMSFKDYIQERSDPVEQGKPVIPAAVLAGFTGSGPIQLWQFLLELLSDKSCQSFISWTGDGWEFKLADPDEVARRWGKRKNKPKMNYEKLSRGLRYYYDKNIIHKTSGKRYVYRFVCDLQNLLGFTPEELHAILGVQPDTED
# ETV3 = target: T5, ETV3 (UniProt P41162-2)
# T5 sequence: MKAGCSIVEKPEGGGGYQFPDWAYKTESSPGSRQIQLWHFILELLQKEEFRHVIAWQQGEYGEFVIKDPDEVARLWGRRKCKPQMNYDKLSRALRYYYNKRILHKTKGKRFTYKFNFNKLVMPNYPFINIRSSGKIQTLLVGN
Sequence,binding signal (ELK1),binding signal (ELK3),binding signal (SPIC),binding signal (ETS2),binding signal (ETV3)
GGCGCG,0.623,0.584,0.69,0.634,0.637
TCAGTG,0.779,0.763,0.881,0.798,0.765
CCGTGA,0.184,0.179,0.182,0.188,0.195
GGGTGG,0.811,0.792,0.891,0.765,0.759
GTGGAC,0.87,0.895,0.965,0.959,0.875
GAGGCG,0.397,0.365,0.474,0.429,0.376
GCGGTT,0.762,0.808,0.823,0.728,0.752
CAGCGA,0.894,0.8,0.976,0.869,0.818
GTCCAG,0.6,0.661,0.672,0.607,0.618
GGGAAT,0.809,0.784,0.856,0.784,0.761
GTACGG,0.812,0.818,0.756,0.81,0.849
AGTCCA,0.664,0.712,0.719,0.661,0.663
GACCAC,0.867,0.941,0.808,0.847,0.829
AACGAG,0.817,0.84,0.812,0.831,0.809
GAGCGG,0.53,0.509,0.509,0.5,0.511
CAGTAA,0.725,0.774,0.702,0.771,0.734
TGTGTG,0.85,0.864,0.737,0.905,0.906
GTGCGA,0.886,0.906,0.824,0.847,0.921
GACGGA,0.495,0.556,0.458,0.486,0.542
ACGTGT,0.61,0.671,0.637,0.667,0.673
GAGCAC,0.758,0.7,0.751,0.67,0.703
AAGGAG,0.341,0.365,0.376,0.347,0.343
CAGTGC,0.721,0.805,0.798,0.792,0.769
GGAGCC,0.329,0.308,0.36,0.322,0.319
AGGGCA,0.855,0.807,0.692,0.869,0.845
GAGTTC,0.771,0.85,0.767,0.764,0.713
ACAGAC,0.753,0.771,0.81,0.773,0.839
AAGGAC,0.876,0.849,0.835,0.796,0.909
ACAGTA,0.894,0.811,0.929,0.905,0.809
GTAGAG,0.586,0.554,0.67,0.571,0.577

# An excerpt from above, reduced to binding signal (ETV3):
Sequence | binding signal (ETV3)
CAGCGA | 0.818
AAGGAG | 0.343
